Source: PMC11358016
Results are given in words; binding and its absence hold for the method and conditions named. In cells and extracts the contact can be indirect. Some entries that bind do so weakly or less than the wild type.

Amino acid sequences for entries named in this document (tags omitted).
UniProt Q0KL00: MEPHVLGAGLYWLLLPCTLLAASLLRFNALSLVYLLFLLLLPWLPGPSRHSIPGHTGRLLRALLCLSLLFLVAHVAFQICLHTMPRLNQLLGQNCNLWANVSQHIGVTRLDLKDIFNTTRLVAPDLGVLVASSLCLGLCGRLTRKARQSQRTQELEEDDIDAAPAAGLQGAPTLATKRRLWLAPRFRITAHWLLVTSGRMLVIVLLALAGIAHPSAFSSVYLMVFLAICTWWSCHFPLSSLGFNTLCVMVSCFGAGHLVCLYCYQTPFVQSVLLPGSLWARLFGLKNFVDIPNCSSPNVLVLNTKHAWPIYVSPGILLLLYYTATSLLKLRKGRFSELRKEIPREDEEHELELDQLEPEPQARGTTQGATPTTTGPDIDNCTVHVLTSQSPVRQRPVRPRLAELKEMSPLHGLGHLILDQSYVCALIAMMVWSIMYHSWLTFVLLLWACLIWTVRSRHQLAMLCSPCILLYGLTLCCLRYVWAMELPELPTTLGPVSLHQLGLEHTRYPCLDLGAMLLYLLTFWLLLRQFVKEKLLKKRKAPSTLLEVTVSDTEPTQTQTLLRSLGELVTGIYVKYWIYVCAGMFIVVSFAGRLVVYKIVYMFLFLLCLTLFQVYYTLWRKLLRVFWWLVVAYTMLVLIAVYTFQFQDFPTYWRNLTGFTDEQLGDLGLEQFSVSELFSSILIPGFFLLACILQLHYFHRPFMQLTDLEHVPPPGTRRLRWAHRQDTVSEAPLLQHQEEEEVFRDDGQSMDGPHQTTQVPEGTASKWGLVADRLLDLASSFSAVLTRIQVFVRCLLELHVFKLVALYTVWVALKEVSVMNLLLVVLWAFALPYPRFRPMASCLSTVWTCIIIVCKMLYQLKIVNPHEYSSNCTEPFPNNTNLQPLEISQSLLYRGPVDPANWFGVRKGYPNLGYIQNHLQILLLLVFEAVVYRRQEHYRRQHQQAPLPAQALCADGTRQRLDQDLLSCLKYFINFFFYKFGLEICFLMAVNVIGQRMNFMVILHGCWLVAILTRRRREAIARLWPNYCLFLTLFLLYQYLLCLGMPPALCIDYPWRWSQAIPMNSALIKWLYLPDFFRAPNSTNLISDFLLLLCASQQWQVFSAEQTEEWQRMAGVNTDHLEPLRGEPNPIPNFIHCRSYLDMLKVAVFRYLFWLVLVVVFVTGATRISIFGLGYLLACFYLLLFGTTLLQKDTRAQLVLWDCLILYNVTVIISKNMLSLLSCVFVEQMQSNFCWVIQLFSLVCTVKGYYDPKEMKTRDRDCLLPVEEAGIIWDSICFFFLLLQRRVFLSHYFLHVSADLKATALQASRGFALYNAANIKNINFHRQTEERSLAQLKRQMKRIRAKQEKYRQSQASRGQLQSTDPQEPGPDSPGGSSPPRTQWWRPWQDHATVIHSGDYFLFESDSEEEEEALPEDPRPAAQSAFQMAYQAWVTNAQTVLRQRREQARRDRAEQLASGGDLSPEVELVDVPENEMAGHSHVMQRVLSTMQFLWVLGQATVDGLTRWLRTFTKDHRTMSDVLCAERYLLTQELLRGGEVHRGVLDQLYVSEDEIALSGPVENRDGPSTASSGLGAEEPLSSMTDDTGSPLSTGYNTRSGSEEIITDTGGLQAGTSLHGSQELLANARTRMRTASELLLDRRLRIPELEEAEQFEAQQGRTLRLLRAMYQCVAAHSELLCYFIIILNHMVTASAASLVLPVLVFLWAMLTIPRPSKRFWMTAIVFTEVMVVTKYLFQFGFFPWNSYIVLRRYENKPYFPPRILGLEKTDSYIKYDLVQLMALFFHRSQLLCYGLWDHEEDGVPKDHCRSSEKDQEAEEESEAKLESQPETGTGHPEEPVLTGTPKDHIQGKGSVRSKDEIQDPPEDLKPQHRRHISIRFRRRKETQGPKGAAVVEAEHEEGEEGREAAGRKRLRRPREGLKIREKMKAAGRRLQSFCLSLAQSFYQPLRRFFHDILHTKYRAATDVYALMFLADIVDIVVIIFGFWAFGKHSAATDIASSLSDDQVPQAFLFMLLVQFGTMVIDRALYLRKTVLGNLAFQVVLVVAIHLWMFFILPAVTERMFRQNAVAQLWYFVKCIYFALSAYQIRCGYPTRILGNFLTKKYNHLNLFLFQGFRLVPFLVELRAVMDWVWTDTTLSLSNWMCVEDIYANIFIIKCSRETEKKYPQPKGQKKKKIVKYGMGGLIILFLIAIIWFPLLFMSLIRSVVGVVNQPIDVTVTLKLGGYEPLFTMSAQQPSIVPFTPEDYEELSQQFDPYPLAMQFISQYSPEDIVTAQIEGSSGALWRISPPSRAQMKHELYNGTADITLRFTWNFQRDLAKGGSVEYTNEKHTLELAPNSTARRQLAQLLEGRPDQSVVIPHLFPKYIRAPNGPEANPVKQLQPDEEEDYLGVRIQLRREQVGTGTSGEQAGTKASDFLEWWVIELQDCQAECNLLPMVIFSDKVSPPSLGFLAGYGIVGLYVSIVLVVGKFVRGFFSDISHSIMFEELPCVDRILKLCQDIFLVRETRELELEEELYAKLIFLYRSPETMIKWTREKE
UniProt Q9ESQ5: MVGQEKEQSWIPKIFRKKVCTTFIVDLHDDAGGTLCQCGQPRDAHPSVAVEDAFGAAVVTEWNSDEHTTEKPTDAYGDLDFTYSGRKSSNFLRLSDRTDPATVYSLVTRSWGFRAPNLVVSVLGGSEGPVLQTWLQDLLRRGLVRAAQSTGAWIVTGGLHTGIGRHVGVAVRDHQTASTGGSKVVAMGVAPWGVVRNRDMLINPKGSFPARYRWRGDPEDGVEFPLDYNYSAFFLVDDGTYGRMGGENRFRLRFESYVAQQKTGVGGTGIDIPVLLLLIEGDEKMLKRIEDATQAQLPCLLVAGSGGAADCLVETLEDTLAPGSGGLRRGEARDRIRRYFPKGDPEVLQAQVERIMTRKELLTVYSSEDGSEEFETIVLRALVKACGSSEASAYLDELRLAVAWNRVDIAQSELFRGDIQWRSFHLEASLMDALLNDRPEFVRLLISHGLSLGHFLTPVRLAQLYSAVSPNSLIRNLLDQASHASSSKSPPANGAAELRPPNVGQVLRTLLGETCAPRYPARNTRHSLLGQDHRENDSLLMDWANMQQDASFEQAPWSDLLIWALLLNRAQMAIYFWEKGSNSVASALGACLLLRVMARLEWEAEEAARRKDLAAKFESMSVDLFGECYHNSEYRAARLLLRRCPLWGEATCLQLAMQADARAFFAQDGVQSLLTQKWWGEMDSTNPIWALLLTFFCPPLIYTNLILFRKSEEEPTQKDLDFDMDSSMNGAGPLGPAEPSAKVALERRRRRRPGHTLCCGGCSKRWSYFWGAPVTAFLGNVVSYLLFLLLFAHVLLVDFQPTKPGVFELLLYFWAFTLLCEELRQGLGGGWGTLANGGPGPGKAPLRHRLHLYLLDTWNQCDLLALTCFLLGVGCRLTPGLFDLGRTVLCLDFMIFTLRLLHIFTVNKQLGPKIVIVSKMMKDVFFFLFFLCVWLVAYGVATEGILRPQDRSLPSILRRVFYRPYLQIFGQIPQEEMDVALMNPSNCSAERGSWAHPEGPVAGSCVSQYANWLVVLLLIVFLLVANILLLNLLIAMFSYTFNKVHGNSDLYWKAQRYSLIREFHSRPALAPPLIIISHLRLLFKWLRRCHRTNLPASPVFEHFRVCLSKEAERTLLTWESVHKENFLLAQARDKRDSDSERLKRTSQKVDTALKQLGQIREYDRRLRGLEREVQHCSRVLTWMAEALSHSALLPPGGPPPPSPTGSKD

Molecular target: Piezo1 mechanosensitive ion channel (rat (endogenous in H9c2)) (UniProt Q0KL00)
Assay: co-IP; H9c2 cells lysed in 25 mM NaPIPES pH 7.2, 140 mM NaCl, 1 mM EDTA, 1% CHAPS, 0.5% phosphatidylcholine, 2 mM dithiothreitol; pre-cleared with protein G Dynabeads; anti-Piezo1 antibody or rabbit IgG at 4 °C overnight; western blot with anti-TRPM4

- binding: binds
Substance: transient receptor potential melastatin 4 (TRPM4) ion channel (from UniProt Q9ESQ5 1-1208)
